According to publication PMC7819943, “Rice protein-binding microarrays: a tool to detect cis-acting elements near promoter regions in rice”:
The list shows a part of the results.

Protein sequences, listed by entry. Tags and fused reporters are not part of them.
UniProt Q0JBA9, entry or part of it: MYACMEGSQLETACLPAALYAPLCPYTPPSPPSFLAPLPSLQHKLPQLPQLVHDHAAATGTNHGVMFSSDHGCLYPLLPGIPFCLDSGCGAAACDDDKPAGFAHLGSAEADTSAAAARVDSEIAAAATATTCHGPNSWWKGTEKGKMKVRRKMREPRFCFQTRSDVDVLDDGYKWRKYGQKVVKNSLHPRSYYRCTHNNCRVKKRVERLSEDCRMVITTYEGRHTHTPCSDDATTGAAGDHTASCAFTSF

Target: OsWRKY34 (Oryza sativa, UniProt Q0JBA9 1-250)
Assay: protein-binding microarray (RPBM); PBS, 2% BSA, 51.3 ng/ul salmon testes DNA, 50 uM zinc acetate, 200 nM TF, 25 C, 1 h; high values mean tight binding
Settings: protein: recombinant; tags: N-terminal polyhistidine and DsRed monomer fusion (pET32a); label: CyDye5-dUTP incorporated in the synthesized complementary strand; 3' TTTTT single-stranded linker to array surface; dsDNA, one strand shown
Procedure, shortened: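 The binding signal for each feature is its fluorescence intensity in arbitrary units. An Axon 4000B scanner was used to read a custom Agilent array that had been made double-stranded with Cy5-dUTP primer extension, blocked with 2% BSA, incubated at 25 °C for 1 h with 200 nM protein in PBS, 2% BSA, salmon testes DNA and 50 µM zinc acetate, and washed. The protein was an N-terminal polyhistidine–DsRed transcription factor fusion from E. coli BL21-CodonPlus, purified on Ni–NTA.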

| Sequence | binding signal |
| --- | --- |
| GTCTTTGTTCGTTTGGTCGTTGCTACAAGTACATCGCATTCGGAGTCACCTAGTGCAG | 12200 fluorescence intensity (a.u.) |
| TACCCAAACACACTTAACCACAACAAGTCTGCATCATTCTCGGAGTCACCTAGTGCAG | 10300 fluorescence intensity (a.u.) |
| GCATTTCGCTTCCCAAACTCCAGCTTACCGCCTAACCCCACGGAGTCACCTAGTGCAG | 9170 fluorescence intensity (a.u.) |
| AACGTTCCGACTCGCCTCCACCACGACAACTCGCACCACACGGAGTCACCTAGTGCAG | 8900 fluorescence intensity (a.u.) |
| CATCCATAAAAGCTTTCCATATCATCTCAGAAGTACTCTACGGAGTCACCTAGTGCAG | 8190 fluorescence intensity (a.u.) |
| AAAGATTGAGGGGAAGGGTGATAGGTGGGCCCCACGTGGGCGGAGTCACCTAGTGCAG | 8900 fluorescence intensity (a.u.) |
| ATTTTCTTGTTTTACGTGTGACTTAATCTTCAATTTCATCCGGAGTCACCTAGTGCAG | 13100 fluorescence intensity (a.u.) |
| TTTTCTTGGCATGGTGACCTATTTTTACTGCCTTAACCTTCGGAGTCACCTAGTGCAG | 9380 fluorescence intensity (a.u.) |
| CCATCAGTTTGCCCTCCGCCGCCGCCGCCTCCGCCGCCGCCGGAGTCACCTAGTGCAG | 8520 fluorescence intensity (a.u.) |
| AAACTATACTCTCTTTGTCTCATTTTAAGTGCAGTCATAACGGAGTCACCTAGTGCAG | 8730 fluorescence intensity (a.u.) |
| AATGTTTGACACCGTTGACTTTTTAACACATGTTTGACCGCGGAGTCACCTAGTGCAG | 39300 fluorescence intensity (a.u.) |
| AACAATCTAATCTATCTCTGCTTCCAATTCCCATACAAAGCGGAGTCACCTAGTGCAG | 10600 fluorescence intensity (a.u.) |
| GCCACATATACACGGTACCCTCTTCCTTGCATTGCAACCACGGAGTCACCTAGTGCAG | 9870 fluorescence intensity (a.u.) |
| TCTCCCCGCCCGCATCCTCGCTCTGCGCCTCCTCTCCTCACGGAGTCACCTAGTGCAG | 8580 fluorescence intensity (a.u.) |
| CTATACCAACGCACTTTTTCTGGAATTCGCGTTAACCCTACGGAGTCACCTAGTGCAG | 8780 fluorescence intensity (a.u.) |
| CTCCGCGCCCGTGCAGCACCCCGAGCCCGAGCCCCACCGACGGAGTCACCTAGTGCAG | 10100 fluorescence intensity (a.u.) |
| ACTCAACAACAACTTGATAGTTATTAACGTTTGACTTAAACGGAGTCACCTAGTGCAG | 8340 fluorescence intensity (a.u.) |
| AGCTAGGCAAGGTGGACATATGTTTTTCCTTTGGTATTTTCGGAGTCACCTAGTGCAG | 8740 fluorescence intensity (a.u.) |
| CCGCGCCTCTCCTCGCCTCCGCCTCCGTGCGCGGCTGCCGCGGAGTCACCTAGTGCAG | 9340 fluorescence intensity (a.u.) |
| TGCCGTCACCCTATTTCACCTGCCTTCTTCGCCCGTCGCCCGGAGTCACCTAGTGCAG | 9120 fluorescence intensity (a.u.) |
| GTAGGCGGGTGTTGGGTCGGTGCTTTTGTTTACAGCTAAGCGGAGTCACCTAGTGCAG | 9130 fluorescence intensity (a.u.) |
| ACATTCTACCGCGGGACACACACTCGTCTTTACCACACAACGGAGTCACCTAGTGCAG | 10100 fluorescence intensity (a.u.) |
| TGCATTTTCTCGCATCCACCGTTTAGATTTATTGAGTCGCCGGAGTCACCTAGTGCAG | 9860 fluorescence intensity (a.u.) |

Quoted from the listing.
binding signal, TCTCCCCGCCCGCATCCTCGCTCTGCGCCTCCTCTCCTCACGGAGTCACCTAGTGCAG reads 8580 fluorescence intensity (a.u.)
binding signal, TTTTCTTGGCATGGTGACCTATTTTTACTGCCTTAACCTTCGGAGTCACCTAGTGCAG reads 9380 fluorescence intensity (a.u.)
